From publication PMC8394137 come the findings set out here.

Protein sequences, listed by entry. Tags and fused reporters are not part of them.
UniProt O43736: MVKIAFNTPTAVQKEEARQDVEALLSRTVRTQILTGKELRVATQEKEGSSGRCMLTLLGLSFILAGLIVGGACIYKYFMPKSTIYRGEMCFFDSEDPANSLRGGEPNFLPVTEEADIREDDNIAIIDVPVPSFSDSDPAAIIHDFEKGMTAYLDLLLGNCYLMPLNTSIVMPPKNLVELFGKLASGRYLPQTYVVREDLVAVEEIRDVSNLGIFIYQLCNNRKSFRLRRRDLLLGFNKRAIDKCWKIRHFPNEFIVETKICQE

No constants are given. Whether binding was seen depends on the method and setting. Binding seen in cells or lysates may run through a third protein. Some binding calls cover weakened binding; strength is not graded here. Sequences can lack the tags named with a protein.

Assay [1] concerns the target T1, full-length PTCH1-HA (human) (UniProt Q13635).
T1 sequence: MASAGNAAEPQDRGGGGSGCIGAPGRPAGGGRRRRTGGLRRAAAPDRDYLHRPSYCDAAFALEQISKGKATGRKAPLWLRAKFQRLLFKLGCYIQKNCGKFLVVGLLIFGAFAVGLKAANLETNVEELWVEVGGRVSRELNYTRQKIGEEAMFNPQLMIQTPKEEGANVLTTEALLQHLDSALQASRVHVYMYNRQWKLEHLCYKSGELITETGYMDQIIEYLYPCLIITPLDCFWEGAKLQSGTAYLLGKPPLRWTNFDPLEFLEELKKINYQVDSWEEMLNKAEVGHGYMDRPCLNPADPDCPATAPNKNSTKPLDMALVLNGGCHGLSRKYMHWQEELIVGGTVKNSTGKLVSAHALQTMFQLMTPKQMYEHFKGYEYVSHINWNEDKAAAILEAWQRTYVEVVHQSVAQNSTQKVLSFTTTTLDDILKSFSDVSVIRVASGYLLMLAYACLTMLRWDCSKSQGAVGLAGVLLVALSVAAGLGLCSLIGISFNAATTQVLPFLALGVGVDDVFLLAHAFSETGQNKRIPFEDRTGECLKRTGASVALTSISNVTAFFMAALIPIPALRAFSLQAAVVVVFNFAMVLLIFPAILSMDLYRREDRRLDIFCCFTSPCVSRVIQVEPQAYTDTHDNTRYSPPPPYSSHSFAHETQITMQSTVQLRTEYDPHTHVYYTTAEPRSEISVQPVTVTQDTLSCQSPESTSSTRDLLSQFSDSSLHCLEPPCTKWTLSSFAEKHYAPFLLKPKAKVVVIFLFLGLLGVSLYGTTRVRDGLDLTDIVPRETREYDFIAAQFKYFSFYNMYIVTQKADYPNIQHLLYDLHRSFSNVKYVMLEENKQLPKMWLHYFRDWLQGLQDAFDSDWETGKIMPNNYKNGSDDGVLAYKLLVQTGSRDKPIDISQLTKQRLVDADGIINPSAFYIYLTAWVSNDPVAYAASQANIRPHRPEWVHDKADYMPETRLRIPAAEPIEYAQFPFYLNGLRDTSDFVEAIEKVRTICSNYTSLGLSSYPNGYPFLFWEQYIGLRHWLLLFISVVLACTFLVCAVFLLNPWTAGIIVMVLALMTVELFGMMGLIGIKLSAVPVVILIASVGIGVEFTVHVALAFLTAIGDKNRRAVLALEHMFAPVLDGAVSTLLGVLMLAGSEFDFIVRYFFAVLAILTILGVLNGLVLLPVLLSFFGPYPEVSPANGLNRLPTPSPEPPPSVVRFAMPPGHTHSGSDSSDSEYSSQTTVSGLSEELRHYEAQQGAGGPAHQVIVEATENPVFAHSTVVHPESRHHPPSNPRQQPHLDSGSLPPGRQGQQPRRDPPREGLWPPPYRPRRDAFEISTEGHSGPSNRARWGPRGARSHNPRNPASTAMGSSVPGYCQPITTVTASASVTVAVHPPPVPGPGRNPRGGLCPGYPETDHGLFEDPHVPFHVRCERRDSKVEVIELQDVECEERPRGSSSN
Description: co-IP; HEK293 co-transfected with two plasmids, lysed 24 h later in 50 mM Tris HCl pH 7.5, 150 mM NaCl, 1% NP-40, 0.05% sodium deoxycholate, 1 mM EDTA; anti-tag antibody (anti-HA or anti-myc) and Dynabeads Protein G at 4 °C; Western blot for the other tag. (In general: In western blotting, separated proteins are transferred to a membrane and probed.)

The target in assay [2] is myc-tagged ITM2A (integral membrane protein 2A) (UniProt O43736). The description is as above.

Consider “myc-tagged ITM2A (integral membrane protein 2A) (from UniProt O43736 1-263)”, for which the binding result in assay [1] and in assay [2] was “binds” throughout.

B1: full-length PTCH1-HA (receptor, UniProt Q13635 1-1447)
chain: T1 sequence
As to B1, in assay [2], the binding result was “binds”.

B2: full-length PTCH1-eGFP (receptor, UniProt Q13635 1-1447)
chain: T1 sequence
B2: in assay [2], the binding entry is reported as “binds”.
